{"source": "PubChem BioAssay AID200", "about": "(DTP/NCI, 2004)", "tested_on": "B6C3F1 mice, B16 melanoma ip, median survival T/C", "assay": "NCI In Vivo Anticancer Drug Screen. Data for tumor model B16 Melanoma (intraperitoneal) in B6C3F1 mice", "details": "T/C endpoint: median survival time, schedule: Q01DX009 (ip), higher T/C = longer survival", "summary_of_the_method": "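Readout: survival or tumor size in treated mice relative to vehicle controls (T/C). Model uses transplantable tumors grown in mice.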", "key": {"[1]": {"details": "dose: 160.0 mg/kg/injection, vehicle: saline with Tween-80"}, "[2]": {"details": "dose: 25.0 mg/kg/injection, vehicle: Klucel (hydroxypropylcellulose) (HPC)"}, "[3]": {"details": "dose: 50.0 mg/kg/injection, vehicle: Klucel (hydroxypropylcellulose) (HPC)"}, "[4]": {"details": "dose: 100.0 mg/kg/injection, vehicle: Klucel (hydroxypropylcellulose) (HPC)"}}, "note": "The list does not hold the whole screen: it is rich in T/C values a quarter to a half above the control, in often repeated tests (any T/C) and in doses without a T/C. Further doses and runs are listed elsewhere. T/C: endpoint of the treated group in % of that of the vehicle group. Some entries give survivors of the animals treated and no T/C: the source files T/C as zero there, which appears to mark a toxic dose or a test without result, not a measured value. Some doses without a T/C left all or most animals alive at the check, yet need not have been tolerated: survival well below the control is almost never listed, so the zero probably covers shortened survival too. Survivors were counted at the toxicity check, usually on the fifth day, unless a day is given; later deaths do not show. Schedules are NCI's codes, read here as Q, the interval in days (D) or hours (H), X, the number of doses. Counts like (3×) give the number of equal values in this list. Some entries hold several experiments; the values are given in rising order. For survival time, the PubChem record calls one and a half times the control and up active, and a quarter to a half above the control has no call in these data; cut-offs in other NCI protocols can differ.", "data": [{"molecule": "Nc1n[nH]c2ccccc12", "values": [{"measurement": "survivor count", "setting": "dose: 400.0 mg/kg/injection, vehicle: acid diluted with saline", "value": "9 of 10"}]}, {"molecule": "O=C1C2=C(C(=O)c3cnccc31)C1C=CC2CC1", "note": "(centres undefined)", "values": [{"measurement": "survivor count", "setting": "dose: 200.0 mg/kg/injection, vehicle: DMSO", "value": "7 of 10"}]}, {"molecule": "CC(NC(=O)c1ccccc1)C(=O)O", "note": "(centres undefined)", "values": [{"measurement": "survivor count", "setting": "[1]", "value": "6 of 6"}, {"measurement": "survivor count", "setting": "dose: 320.0 mg/kg/injection, vehicle: saline with Tween-80", "value": "6 of 6"}, {"measurement": "survivor count", "setting": "dose: 640.0 mg/kg/injection, vehicle: saline with Tween-80", "value": "6 of 6"}]}, {"molecule": "CC1(C)CC(=O)C(CSC(=O)c2ccccc2)C(=O)C1", "values": [{"measurement": "survivor count", "setting": "[2]", "value": "8 of 10 and 10 of 10"}, {"measurement": "survivor count", "setting": "[3]", "value": "7 of 10 and 10 of 10"}, {"measurement": "survivor count", "setting": "[4]", "value": "7 of 10"}]}, {"molecule": "O=C(O)C1CCCN1C(=O)OCC1c2ccccc2-c2ccccc21", "note": "(centres undefined)", "values": [{"measurement": "survivor count", "setting": "dose: 400.0 mg/kg/injection, vehicle: Klucel (hydroxypropylcellulose) (HPC)", "value": "2 of 10"}]}, {"molecule": "[Cl][Pt+2][Cl].[NH-]c1ccc([N+](=O)[O-])cc1[NH-]", "values": [{"measurement": "survivor count", "setting": "[1]", "value": "2 of 10"}]}, {"molecule": "CCN(CC)CCNc1ccc(C)c2sc3ccc(O)cc3c(=O)c12", "values": [{"measurement": "T/C", "setting": "dose: 25.0 mg/kg/injection, vehicle: saline with Tween-80", "value": "137 % of control"}, {"measurement": "survivor count", "setting": "dose: 200.0 mg/kg/injection, vehicle: saline with Tween-80", "value": "9 of 10"}]}, {"molecule": "CC(C)NC(=O)OCc1c(COC(=O)NC(C)C)c(-c2ccc(Cl)c(Cl)c2)n2c1CC(OC(=O)CN(C)C)C2", "note": "(centres undefined)", "values": [{"measurement": "survivor count", "setting": "dose: 80.0 mg/kg/injection, vehicle: distilled water + Tween-80", "value": "10 of 10 (2×)"}, {"measurement": "survivor count", "setting": "dose: 160.0 mg/kg/injection, vehicle: distilled water + Tween-80", "value": "8 of 10"}]}, {"molecule": "CCCCCCCC1C(=O)OC2CC3C(C)=CC(=O)C(O)C3(C)C3C4(O)OCC23C1C(C)C4O", "note": "(centres undefined)", "values": [{"measurement": "T/C", "setting": "dose: 20.0 mg/kg/injection, vehicle: Klucel (hydroxypropylcellulose) (HPC)", "value": "128 % of control"}, {"measurement": "survivor count", "setting": "dose: 40.0 mg/kg/injection, vehicle: Klucel (hydroxypropylcellulose) (HPC)", "value": "0 of 10"}]}, {"molecule": "BrCC[Se]c1ccccc1", "values": [{"measurement": "T/C", "setting": "dose: 6.25 mg/kg/injection, vehicle: saline with Tween-80", "value": "136 % of control"}, {"measurement": "survivor count", "setting": "dose: 100.0 mg/kg/injection, vehicle: saline with Tween-80", "value": "7 of 10 and 10 of 10"}]}, {"molecule": "N=C(N)c1nn(C2OC(CO)C(O)C2O)c2nc[nH]c(=O)c12", "note": "(centres undefined)", "values": [{"measurement": "T/C", "setting": "dose: 6.25 mg/kg/injection, vehicle: Klucel + Tween-80", "value": "140 % of control"}, {"measurement": "T/C", "setting": "dose: 10.42 mg/kg/injection, vehicle: Klucel (hydroxypropylcellulose) (HPC)", "value": "126 % of control"}, {"measurement": "T/C", "setting": "dose: 12.5 mg/kg/injection, vehicle: Klucel + Tween-80", "value": "129 % of control"}, {"measurement": "survivor count", "setting": "dose: 25.0 mg/kg/injection, vehicle: Klucel + Tween-80", "value": "10 of 10"}, {"measurement": "survivor count", "setting": "dose: 50.0 mg/kg/injection, vehicle: Klucel + Tween-80", "value": "1 of 10"}]}, {"molecule": "CC(C)(C)OC(=O)NCCCCC(NC(=O)OCC1c2ccccc2-c2ccccc21)C(=O)O", "note": "(centres undefined)", "values": [{"measurement": "survivor count", "setting": "[4]", "value": "10 of 10"}]}, {"molecule": "[CH3][Sn]([CH3])([Cl])[S]CCN", "values": [{"measurement": "survivor count", "setting": "dose: 25.0 mg/kg/injection, vehicle: saline", "value": "10 of 10"}, {"measurement": "survivor count", "setting": "dose: 50.0 mg/kg/injection, vehicle: saline", "value": "6 of 10"}]}, {"molecule": "O=S(=O)(c1cccc(N=C=S)c1)c1cccc(N=C=S)c1", "values": [{"measurement": "survivor count", "setting": "[2]", "value": "6 of 10"}, {"measurement": "survivor count", "setting": "[3]", "value": "4 of 10"}, {"measurement": "survivor count", "setting": "[4]", "value": "1 of 10"}]}]}
